Measurements from patent US7622269B2, “Methods of screening tyramine- and octopamine-expressing cells for compounds and compositions having potential insect control activity” (Tyratech, Inc., priority 2004, dated 2009).

By UniProt entry, the sequences of proteins in these tests, tags left out.
UniProt Q7YWB7, entry or part of it: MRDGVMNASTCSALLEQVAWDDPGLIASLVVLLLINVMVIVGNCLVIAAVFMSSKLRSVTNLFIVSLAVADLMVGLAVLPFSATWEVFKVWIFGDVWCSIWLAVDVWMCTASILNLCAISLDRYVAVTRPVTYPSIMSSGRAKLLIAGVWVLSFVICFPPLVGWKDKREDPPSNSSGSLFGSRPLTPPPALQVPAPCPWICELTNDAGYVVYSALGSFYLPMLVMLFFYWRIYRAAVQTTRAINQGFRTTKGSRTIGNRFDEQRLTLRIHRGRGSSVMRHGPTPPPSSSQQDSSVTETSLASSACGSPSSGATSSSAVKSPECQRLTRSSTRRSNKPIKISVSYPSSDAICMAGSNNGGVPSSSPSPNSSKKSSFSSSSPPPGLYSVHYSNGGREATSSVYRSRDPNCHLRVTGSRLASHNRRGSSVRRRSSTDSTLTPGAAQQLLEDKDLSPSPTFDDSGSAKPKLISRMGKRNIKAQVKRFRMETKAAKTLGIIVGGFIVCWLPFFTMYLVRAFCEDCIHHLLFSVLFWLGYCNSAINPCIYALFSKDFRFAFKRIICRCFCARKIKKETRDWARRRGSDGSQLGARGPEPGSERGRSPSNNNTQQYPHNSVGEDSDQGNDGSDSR

Molecular target: Pa oa1 (Periplaneta americana, UniProt Q7YWB7)
Experiment: Competitive binding against 3H-yohimbine, Pa oa1 membranes
Details: about 2 nM 3H-yohimbine

CN1CCN2c3ccccc3Cc3ccccc3C2C1 (stereo not shown) [Mianserin]
Ki: 48 ± 13 nM
